Assay results as given in patent US5436251A, “Treatment of anxiety and gastrointestinal disorders with azabicyclo carbonyl-2-(cyclopropylmethyloxy)benzamide” (John Wyeth & Brother, Limited, priority 1992, dated 1995).
The structures given here were assigned with low confidence; some may be wrong. Blank lines part the entries; values can stand above or below the compound they belong to.

Sequences of proteins named here, by UniProt entry; tags and fusion partners are left off. Residues count along the entry.
UniProt P35563, 24-483 limits assumed: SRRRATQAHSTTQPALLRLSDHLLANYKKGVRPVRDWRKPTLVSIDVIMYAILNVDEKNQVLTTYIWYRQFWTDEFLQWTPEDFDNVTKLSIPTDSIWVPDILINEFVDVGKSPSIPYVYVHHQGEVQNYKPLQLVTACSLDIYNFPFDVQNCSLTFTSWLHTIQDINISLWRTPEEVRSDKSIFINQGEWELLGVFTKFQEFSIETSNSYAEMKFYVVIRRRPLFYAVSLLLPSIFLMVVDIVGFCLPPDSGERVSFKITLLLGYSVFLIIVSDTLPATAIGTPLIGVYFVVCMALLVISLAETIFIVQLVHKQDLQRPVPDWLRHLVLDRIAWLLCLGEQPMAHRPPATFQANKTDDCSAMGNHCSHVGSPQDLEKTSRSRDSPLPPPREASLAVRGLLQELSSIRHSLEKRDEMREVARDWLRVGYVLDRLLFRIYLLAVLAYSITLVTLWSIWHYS

Legend:
5-HT3 receptors = 5-HT3 receptors (Rattus norvegicus, UniProt P35563); test: 5-HT3 antagonistic activity in the rat vagus (antagonism of 5-HT depolarization of isolated vagus nerve, Schild analysis); set-up: species or system rat (Sprague-Dawley); conditions: rat vagus nerve in vitro
Experimental: Compound A, the compound of GB 2236528A and the compounds disclosed in GB 2213816A are tested for 5-HT3 antagonistic activity in the rat vagus by the following procedure:
The method is similar to that described by Ireland and Tyers, Br. J. Pharmac., 1987, 90, 229-238 and is dependent upon the ability of 5-HT to depolarize the vagus nerve in vitro.
Segments of the vagus nerve from Sprague-Dawley rats were placed in a perspex chamber and perfused with Krebs solution. Electrodes, positioned at either end of the nerve segment, were used to record the potential differences which ensued upon the addition of various concentrations of 5-HT to one end of the nerve segment.
Concentration-response curves to 5-HT were obtained in this manner prior to and following equilibration of the nerve segment with Krebs solution containing the test-substance.

[1] = Potential anxiolytic activity: mouse exploratory activity in a two-compartment light/dark box; conditions: s.c., significant (p<0.05) increase in rearing activity in the light section
Experimental: Compound A, the compound of GB 2236528A and a representative number of compounds disclosed in GB 2213816A which had high pA2 values in the 5-HT3 -antagonist test procedure given above were tested for potential anxiolytic activity by a test procedure measuring mouse exploratory activity in a two-compartment light/dark box based upon the procedure of B Costall et al, Neuropharmacology, 1987, 26, 195-200 and J. N. Crawley et al, Pharmac. Biochemo Behav., 1980, 13, 167-170. The test involves observing groups of mice placed in an open topped box, one third of which is painted black and illuminated under a dim red light and partitioned from the remainder of the box which is painted white and brightly illuminated. Access between the two sections is via an opening in the centre of the partition. The groups of mice are treated with vehicle or test compound and various behavioural parameters of the animals are measured including the number of exploratory rearings made by the mice in each section and the number of times the mice cross lines marked on the floor of each section. For each treatment group the mean numbers of line crossings and rears in each section of the box are calculated. Differences between drug-treated groups and vehicle-treated controls are compared using Student's unpaired t-test. […] Test compounds are considered to be active if they induce a similar set of changes and, in particular, if they produce a significant (p<0.05) increase in rearing activity in the light section of the box.

Structure (SMILES): O=C(NC(=O)c1ccccn1)NC1CN2CCC1CC2 (stereo not drawn)
pA2 (5-HT3 receptors; tested form: fumarate): < 6.5

Structure (SMILES): COc1ccc(C(=O)NC(=O)NC2CN3CCC2CC3)cc1 (stereo not drawn)
pA2 (5-HT3 receptors; tested form: maleate hemihydrate): < 6.5

Structure (SMILES): O=C(Nc1cc(Cl)cc(Cl)c1)N[C@@H]1CN2CCC1CC2
pA2 (5-HT3 receptors): 8.5

Structure (SMILES): O=C(NC(=O)c1ccco1)NC1CN2CCC1CC2 (stereo not drawn)
pA2 (5-HT3 receptors; tested form: succinate): < 6.5

Structure (SMILES): CN1[C@@H]2CC[C@H]1C[C@@H](OC(=O)Nc1cc(Cl)cc(Cl)c1)C2
pA2 (5-HT3 receptors; tested form: HCl): 7.6

Structure (SMILES): O=C(NC(=O)c1cccc(C(F)(F)F)c1)NC1CN2CCC1CC2 (stereo not drawn)
pA2 (5-HT3 receptors; tested form: oxalate): < 6.5

Structure (SMILES): Cc1ccccc1C(=O)NC(=O)NC1CN2CCC1CC2 (stereo not drawn)
pA2 (5-HT3 receptors; tested form: fumarate): 6.6

Structure (SMILES): O=C(NC(=O)c1ccc2ccccc2c1)NC1CN2CCC1CC2 (stereo not drawn)
pA2 (5-HT3 receptors; tested form: HCl hemihydrate): < 6.5

Structure (SMILES): O=C(NC(=O)c1cccs1)NC1CN2CCC1CC2 (stereo not drawn)
pA2 (5-HT3 receptors; tested form: HCl hemihydrate): 6.9

pA2 (5-HT3 receptors; tested form: HCl): 8.6
Structure (SMILES): COc1ccccc1C(=O)NC(=O)NC1CC2CCC(C1)N2C (stereo not drawn)
minimum effective dose (MED) ([1]; tested form: HCl): 1 mg/kg

Structure (SMILES): O=C(Nc1cc(Cl)cc(Cl)c1)N[C@H]1CN2CCC1CC2
pA2 (5-HT3 receptors; tested form: quarter hydrate): 7.4
minimum effective dose (MED) ([1]; tested form: quarter hydrate): 1 mg/kg

Structure (SMILES): COc1ccccc1C(=O)NC(=O)N[C@@H]1CN2CCC1CC2
pA2 (5-HT3 receptors; tested form: fumarate): 7.25

Structure (SMILES): O=C(NC(=O)c1ccccc1F)NC1CN2CCC1CC2 (stereo not drawn)
pA2 (5-HT3 receptors; tested form: succinate): < 6.5

Structure (SMILES): CCOc1ccccc1C(=O)NC(=O)NC1CN2CCC1CC2 (stereo not drawn)
pA2 (5-HT3 receptors; tested form: fumarate): 8.35
minimum effective dose (MED) ([1]; tested form: fumarate): 1 mg/kg

Structure (SMILES): C=CCOc1ccccc1C(=O)NC(=O)NC1CN2CCC1CC2 (stereo not drawn)
pA2 (5-HT3 receptors; tested form: fumarate): 7.8

Structure (SMILES): CC(C)Oc1ccccc1C(=O)NC(=O)NC1CN2CCC1CC2 (stereo not drawn)
pA2 (5-HT3 receptors; tested form: fumarate): 8.7
minimum effective dose (MED) ([1]; tested form: fumarate): 1 mg/kg

pA2 (5-HT3 receptors; tested form: maleate): 7.9
Structure (SMILES): CN1[C@@H]2CC[C@H]1C[C@@H](NC(=O)Nc1cc(Cl)cc(Cl)c1)C2

Structure (SMILES): COc1ccccc1C(=O)NC(=O)N[C@H]1CN2CCC1CC2
pA2 (5-HT3 receptors; tested form: fumarate): 8.15

Structure (SMILES): Cc1cccc(C)c1C(=O)NC(=O)NC1CN2CCC1CC2 (stereo not drawn)
pA2 (5-HT3 receptors; tested form: quarter hydrate): < 6.5

Structure (SMILES): O=C(NC(=O)c1ccccc1OCC1CC1)NC1CN2CCC1CC2 (stereo not drawn)
pA2 (5-HT3 receptors; tested form: oxalate hemihydrate): 8.1
